{"source": "patent US6080755A", "about": "“1,9-diazabicyclo[4.3.0]nona-3,8-diene derivatives” (Wyeth Lederle Japan, Ltd., priority 1995, dated 2000)", "system": "Isolated Rat Hearts", "experiment": "Cardioprotective Effect in Ischemia/Reperfusion Model of Isolated Rat Hearts", "design": "species or system Male Sprague-Dawley rats", "conditions": "relative to propranolol = 100%; 10^-5 mol of test compound in 0.04% DMSO; 25 min global ischemia, reperfusion for 30 minutes", "method": "Cardioprotective Effect in Ischemia/Reperfusion Model of Isolated Rat Hearts:\nMale Sprague-Dawley rats (300-500 g) were used. The rats were anesthetized using 40 mg/kg of sodium pentobarbital (i.p.) after treating with heparin (i.v. 1000 U/kg). The hearts were excised and moved quickly to a Langendorlf apparatus where they were perfused with Krebs-Henseleit bicarbonate buffer (118 mM of NaCl; 4.7 mM of KCl; 2.55 mM of CaCl2; 1.18 mM of KH2 PO4; 24.88 mM of NaHCO3; 11.1 mM of glucose) bubbled with mixture gas of 95% oxygen and 5% carbon dioxide at a constant perfusion pressure (75 mmHg). The parameters of cardiac function were determined as follows.\nThe physiological saline-filled latex balloon was inserted into the left ventricle and connected to a pressure transducer for measurement of left ventricular pressure (LVP). The volume of the balloon was adjusted to produce an LV end-diastolic pressure at 5-10 mmHg. The heart rate was determined with a tachometer and coronary flow was determined with an extra-corporeal electromagnetic flow tube.\nFor the equilibration, the hearts were perfused for initial 15-20 minutes. […] The cardiac function was measured before the treatment of the test compounds, before ischemia and after reperfusion. […]\nThe cardioprotective effects of the test compounds were evaluated on the basis of the extent of recovery of LVP after reperfusion for 30 minutes.", "note": "The name of at least one read-out is uncertain."}
{"smiles": "CC(C)NCC(O)COc1cccc2ccccc12", "note": "(stereo not shown) [propranolol, reference compound]", "values": [{"measurement": "LVDP(%) as compared with that for propranolol, when the recovery by propranolol is assumed to be 100%", "result": 100.0, "unit": "%"}]}
